Hit rate of the full screen: of about 210,000 compounds, about 5,900 (2.8%) were called active. About 5% were inconclusive and are not listed. Calls follow the shape of the dose curve; as a rule, active = well fitted activation curve with a large enough effect; inconclusive = small, poorly fitted or top-dose-only effect; inactive = no such curve, though single readings can be large or run the other way. This is one part of the list.
What follows are compounds tested against Survival motor neuron protein, Homo sapiens (UniProt Q16637) (assay: qHTS Assay for Enhancers of SMN2 Splice Variant Expression).

Sequences of proteins named here, by UniProt entry; tags and fusion partners are left off.
UniProt Q16637, whole entry: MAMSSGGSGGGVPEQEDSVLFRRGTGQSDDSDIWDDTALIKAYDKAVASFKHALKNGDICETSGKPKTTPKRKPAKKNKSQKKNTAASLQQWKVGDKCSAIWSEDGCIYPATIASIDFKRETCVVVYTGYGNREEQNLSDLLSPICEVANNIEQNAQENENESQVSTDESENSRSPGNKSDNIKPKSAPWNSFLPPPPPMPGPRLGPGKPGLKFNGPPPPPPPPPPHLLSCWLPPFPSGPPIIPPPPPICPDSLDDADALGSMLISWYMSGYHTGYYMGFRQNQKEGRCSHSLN

SMILES | outcome
COc1cc(-c2nc3cnccn3c2Nc2ccc(C(C)C)cc2)ccc1O | inactive
COc1ccc(C2Sc3ccccc3N(CCN(C)C)C(=O)[C@@H]2OC(C)=O)cc1 (stereo partly drawn) | inactive
COc1ccc2[nH]c(=O)c3c(c2c1)OC(C)(C)C=C3 | inactive
CC1=C(C#N)C(NC(=O)c2ccccc2Cl)(C(F)(F)F)C(=O)N1 (stereo not drawn) | inactive
Cc1ncc([N+](=O)[O-])n1CC(C)O (stereo not drawn) | inactive
Cc1cccc(Cn2c(Cc3ccccc3)nc3ccccc32)c1 | inactive
COc1ccc2nc(C)cc(SCC(=O)[O-])c2c1.[Na+] | inactive
NCCc1cccc(O)c1 | inactive
